{"sequences": {"note": "By UniProt entry, the sequences of proteins in these tests, tags left out.", "UniProt Q0JBA9, entry or part of it": "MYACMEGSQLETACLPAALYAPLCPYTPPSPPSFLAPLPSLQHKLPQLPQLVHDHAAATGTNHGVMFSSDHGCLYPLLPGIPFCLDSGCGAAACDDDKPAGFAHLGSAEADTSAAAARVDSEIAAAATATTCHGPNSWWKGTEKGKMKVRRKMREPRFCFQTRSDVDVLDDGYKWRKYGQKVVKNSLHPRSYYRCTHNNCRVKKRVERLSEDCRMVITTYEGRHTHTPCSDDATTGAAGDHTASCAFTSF"}, "source": "paper PMC7819943", "about": "“Rice protein-binding microarrays: a tool to detect cis-acting elements near promoter regions in rice”", "note": "The list shows a part of the results.", "data": [{"target": "OsWRKY34 (Oryza sativa, UniProt Q0JBA9 1-250)", "assay": "protein-binding microarray (RPBM); PBS, 2% BSA, 51.3 ng/ul salmon testes DNA, 50 uM zinc acetate, 200 nM TF, 25 C, 1 h; high values mean tight binding", "conditions": "protein: recombinant; tags: N-terminal polyhistidine and DsRed monomer fusion (pET32a); label: CyDye5-dUTP incorporated in the synthesized complementary strand; 3' TTTTT single-stranded linker to array surface; dsDNA, one strand shown", "procedure,_shortened": "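Ni–NTA purification followed expression in E. coli BL21-CodonPlus of transcription factors fused N-terminally to a polyhistidine tag and DsRed. At 200 nM in PBS with 2% BSA, salmon testes DNA and 50 µM zinc acetate, the protein was incubated for 1 h at 25 °C with a custom Agilent array that had been primer-extended with Cy5-dUTP and blocked with 2% BSA. After washing, the array was read on an Axon 4000B scanner. The binding signal is per-feature fluorescence intensity in arbitrary units.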", "values": [{"sequence": "ATAGTTGTTGACTAAGTATCCAACTGCCAATGCTATCTCACGGAGTCACCTAGTGCAG", "binding signal": "8320 fluorescence intensity (a.u.)"}, {"sequence": "GGGCTGTTTAGTTTTGGATTGATTGAGCAATGTAATATAACGGAGTCACCTAGTGCAG", "binding signal": "8130 fluorescence intensity (a.u.)"}, {"sequence": "ATCAGGGAGATTGGGGTGTGCCGTGAGTGTGGCTTGCACGCGGAGTCACCTAGTGCAG", "binding signal": "8690 fluorescence intensity (a.u.)"}, {"sequence": "TCAATGTTGCACTTCATATCCTTGTACTTACTATGTCTAACGGAGTCACCTAGTGCAG", "binding signal": "8940 fluorescence intensity (a.u.)"}, {"sequence": "GTTAGCCGTCCACTTGCGCGGACCACCCATCTAGTTTTAACGGAGTCACCTAGTGCAG", "binding signal": "9280 fluorescence intensity (a.u.)"}, {"sequence": "GGACCGTCCCTTTTTGGCAGCCCATGTAGTTTTATGCCTCCGGAGTCACCTAGTGCAG", "binding signal": "10000 fluorescence intensity (a.u.)"}, {"sequence": "CCCCTTCGCGTTTGCGTTTCCTCCGCCTCCTCACTCCAATCGGAGTCACCTAGTGCAG", "binding signal": "8600 fluorescence intensity (a.u.)"}, {"sequence": "CCTATTATCTTAATGACATTCTCGGATTTAATGTGTGACTCGGAGTCACCTAGTGCAG", "binding signal": "8390 fluorescence intensity (a.u.)"}, {"sequence": "ACTAATTCATCCCTGTAACCAGCTACCACTTCAATTTTCCCGGAGTCACCTAGTGCAG", "binding signal": "11600 fluorescence intensity (a.u.)"}, {"sequence": "GACGACGGCGGCGGGAGCAATCCGCGGCGACGGGGCGGGGCGGAGTCACCTAGTGCAG", "binding signal": "9170 fluorescence intensity (a.u.)"}, {"sequence": "ATAAACTTACAAATGGCTACCTTTTTGCATCTGCTTTTTTCGGAGTCACCTAGTGCAG", "binding signal": "9130 fluorescence intensity (a.u.)"}, {"sequence": "TCTCCTTCCGCGACGTGCTCAACATCCTCCATAACCTGCACGGAGTCACCTAGTGCAG", "binding signal": "9760 fluorescence intensity (a.u.)"}, {"sequence": "TGTTGTTTTTTATGTGTGAACCTCTTTGATCTCAATGCAACGGAGTCACCTAGTGCAG", "binding signal": "8510 fluorescence intensity (a.u.)"}, {"sequence": "TCCTGATGCCGCCACCACCTCCTTCGCTGTTACCACCTCTCGGAGTCACCTAGTGCAG", "binding signal": "9700 fluorescence intensity (a.u.)"}, {"sequence": "TCACCACCACCAATGCATGCAAACTCAACCAGCAGTCTCGCGGAGTCACCTAGTGCAG", "binding signal": "8360 fluorescence intensity (a.u.)"}, {"sequence": "ACGCTTTTCAAACTGCTAAACGGTGTATTTTGTGCGAAACCGGAGTCACCTAGTGCAG", "binding signal": "9150 fluorescence intensity (a.u.)"}, {"sequence": "GCCGTCCGAACAAAGCCAATATAGGAGTATCTTTTATCTTCGGAGTCACCTAGTGCAG", "binding signal": "10100 fluorescence intensity (a.u.)"}, {"sequence": "TCCCTTTCAACATGGTTCGTGCTACGATGCGATCTCATCACGGAGTCACCTAGTGCAG", "binding signal": "9240 fluorescence intensity (a.u.)"}, {"sequence": "TCTCAATCCGACGGCCCACTTCGCCATTTAGGCCAATTTTCGGAGTCACCTAGTGCAG", "binding signal": "10500 fluorescence intensity (a.u.)"}, {"sequence": "AGTTTTATATAGGGTGTTGCATGGGGTGTTTGGACATTAACGGAGTCACCTAGTGCAG", "binding signal": "11800 fluorescence intensity (a.u.)"}, {"sequence": "AATATCATCCGTGTCACTACCTAGCTCCTGCATGCTCTGCCGGAGTCACCTAGTGCAG", "binding signal": "8170 fluorescence intensity (a.u.)"}, {"sequence": "TTCGTGTCCACACCCCATCTTTATATGCTATTTTCTCAAACGGAGTCACCTAGTGCAG", "binding signal": "9170 fluorescence intensity (a.u.)"}, {"sequence": "GATTGGGGAAGCTGGAGTAGGTAAAACAGTACTCATCATACGGAGTCACCTAGTGCAG", "binding signal": "8570 fluorescence intensity (a.u.)"}, {"sequence": "TTTTCGTGTGCCTCCACTTTGGCATCAGATGCGGTTGACTCGGAGTCACCTAGTGCAG", "binding signal": "9000 fluorescence intensity (a.u.)"}, {"sequence": "ATGGATCATGGATGGCTCCCGTTGTCATTGTCGCGTCGTCCGGAGTCACCTAGTGCAG", "binding signal": "9810 fluorescence intensity (a.u.)"}, {"sequence": "CACCTCTTCTTGTCATGACTCCTAACAGTCAAGTTCCAACCGGAGTCACCTAGTGCAG", "binding signal": "9160 fluorescence intensity (a.u.)"}, {"sequence": "TGGTTTTGTGATATTATGGATCTAAATATATTGTTTTATGCGGAGTCACCTAGTGCAG", "binding signal": "8690 fluorescence intensity (a.u.)"}, {"sequence": "GGTTGGTCTCTCTCTCCCTCGCCGCGTCCTGCTGGGAAATCGGAGTCACCTAGTGCAG", "binding signal": "14100 fluorescence intensity (a.u.)"}, {"sequence": "TATACATGTCGGAATCTATCTACGGCCACGCATCTGGAGTCGGAGTCACCTAGTGCAG", "binding signal": "8820 fluorescence intensity (a.u.)"}, {"sequence": "GTGTTTATGCCTCATCACTAATTAGAATCTTAATTTCTCTCGGAGTCACCTAGTGCAG", "binding signal": "8090 fluorescence intensity (a.u.)"}, {"sequence": "AACCACAGCCGTCCGATCCACACCCCGAGCCGCGCCCGAACGGAGTCACCTAGTGCAG", "binding signal": "8170 fluorescence intensity (a.u.)"}, {"sequence": "CTCTTTCATGCAATAAACATCTACAACGTAATATCTTCTTCGGAGTCACCTAGTGCAG", "binding signal": "8150 fluorescence intensity (a.u.)"}, {"sequence": "ACTTAGGAGAGATTGCCTGAGTGCCATCTTTTTTGTATCTCGGAGTCACCTAGTGCAG", "binding signal": "8960 fluorescence intensity (a.u.)"}, {"sequence": "GATCCATGTATGAGTTGGATTTTAAGTTCGTTTGCTTTTCCGGAGTCACCTAGTGCAG", "binding signal": "8760 fluorescence intensity (a.u.)"}, {"sequence": "GCTGGCTACATATCTGTAGCCCGATTCTCTTCTCTATCATCGGAGTCACCTAGTGCAG", "binding signal": "8100 fluorescence intensity (a.u.)"}, {"sequence": "AACACATCTATTGTCTCGTAAGTCATATCTATGGCACATTCGGAGTCACCTAGTGCAG", "binding signal": "9590 fluorescence intensity (a.u.)"}, {"sequence": "TCTTCTTCTTCTTCACTTACTTGTCCATCTTCTTTCTTCTCGGAGTCACCTAGTGCAG", "binding signal": "9490 fluorescence intensity (a.u.)"}, {"sequence": "GCGGATGATCTTGGCGGTCTCGATCTGGATCCACTTCTCCCGGAGTCACCTAGTGCAG", "binding signal": "8520 fluorescence intensity (a.u.)"}, {"sequence": "TTTTTCATAGTAAATTTTTTATTTTTGTTTCTACTTGTATCGGAGTCACCTAGTGCAG", "binding signal": "9470 fluorescence intensity (a.u.)"}, {"sequence": "TACTCCTCGTCATTTTGGTTTTGGTTTTGGTTTGGGTGGTCGGAGTCACCTAGTGCAG", "binding signal": "10400 fluorescence intensity (a.u.)"}, {"sequence": "AGTCCATGATTAGCCATAAATGCTACAGTAACCTATATGTCGGAGTCACCTAGTGCAG", "binding signal": "9700 fluorescence intensity (a.u.)"}, {"sequence": "TGTGTCTCGCCGTCTTGCGCGTATACCGTCTTCCGTGTGTCGGAGTCACCTAGTGCAG", "binding signal": "9160 fluorescence intensity (a.u.)"}, {"sequence": "CCTCTGACTGACCTGTGGGCCCGTGCTGTCATTCCAATCTCGGAGTCACCTAGTGCAG", "binding signal": "8610 fluorescence intensity (a.u.)"}, {"sequence": "CAAATCTCATCATACACCAGTACACCACGCCCTATAGAACCGGAGTCACCTAGTGCAG", "binding signal": "8200 fluorescence intensity (a.u.)"}, {"sequence": "TCCCACCAGAGCGCCACGTCCACACCCACCCACACACCACCGGAGTCACCTAGTGCAG", "binding signal": "8070 fluorescence intensity (a.u.)"}, {"sequence": "AATTCTCCATGTGGTGTTTTTTTCTCCTGAAGATAAAGATCGGAGTCACCTAGTGCAG", "binding signal": "9130 fluorescence intensity (a.u.)"}, {"sequence": "CTTTCAACTTTTTCGTCACATCATTCCAATTTTAACTAAACGGAGTCACCTAGTGCAG", "binding signal": "10700 fluorescence intensity (a.u.)"}, {"sequence": "GTGAATATTGGTGTTCTCTTTCTTTGCCCAATTCGAAGAACGGAGTCACCTAGTGCAG", "binding signal": "11300 fluorescence intensity (a.u.)"}, {"sequence": "AATCGATTCTCCACTACTCTCTCGTCATTGTTCCCATGTTCGGAGTCACCTAGTGCAG", "binding signal": "20100 fluorescence intensity (a.u.)"}, {"sequence": "AACATCTAGTTCCGCTGACGCTTCGGGACAACCTCTACAACGGAGTCACCTAGTGCAG", "binding signal": "9110 fluorescence intensity (a.u.)"}, {"sequence": "TCCTTTGCTCCATGCTTGTTTCCAGCTCTCCATGTGCTCTCGGAGTCACCTAGTGCAG", "binding signal": "13100 fluorescence intensity (a.u.)"}, {"sequence": "GAGATGGAGGTGGAGGTGGTGGAGGGGACGACGATGGTGGCGGAGTCACCTAGTGCAG", "binding signal": "9610 fluorescence intensity (a.u.)"}, {"sequence": "TTTGCCATTGGTCACTAGCTCTAACTTTGCCTGGAACTAACGGAGTCACCTAGTGCAG", "binding signal": "8530 fluorescence intensity (a.u.)"}, {"sequence": "GTCCACGCATTCCGTCGCTTTCGGTTCTCCTTGTGCCCAACGGAGTCACCTAGTGCAG", "binding signal": "9720 fluorescence intensity (a.u.)"}]}]}
